Results from one PubChem assay

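Genome-wide siRNA knockdown in TC32 Ewing sarcoma cells, comparing luciferase light from an NR0B1-promoter reporter with a CMV-promoter reporter 48 hours after transfection.
Each siRNA was applied at 20 nM.
A z-score of the log NR0B1-over-CMV signal, less the median of siRNAs with the same seed; more negative means a stronger specific loss of the NR0B1 reporter.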

This is part of the screen; most of the strongest results are not listed here.
Sequences are the guide (antisense) strand, without overhang.

Sequence: UUUUCGGACAUUCCAAUCC
gene: CERS5
seed-corrected z-score: 0.5047

Sequence: AAACUUAUCACAGACAUAC
gene: DPF1
seed-corrected z-score: -0.04122

Sequence: UUUCAGGUAAAUGCCUUUG
gene: ADGRD1
seed-corrected z-score: -0.2853

Sequence: UAUGGUUUUGUACCGGUUC
gene: PTPN5
seed-corrected z-score: -0.002484

Sequence: UCUGGAGGAAGGUUUGUCC
gene: ZNF70
seed-corrected z-score: 0.03222

Sequence: AUAGCUUUCGAAGAGAUGC
gene: HIST1H2BA
seed-corrected z-score: 2.36

Sequence: UAGCUUGUCAGUGAGAUGG
gene: DNAH6
seed-corrected z-score: 0.2454

Sequence: UGACUAAGCUGAUCAACCC
gene: PPP1R13B
seed-corrected z-score: -0.5155

Sequence: UAUCUUCAGAACCAUAUGC
gene: GTF2E1
seed-corrected z-score: -0.851

Sequence: UAGAUAGACAGGGCUUUGG
gene: ZNF547
seed-corrected z-score: -0.4885

Sequence: UAUACAUCAACGAAUUGCC
gene: UCHL3
seed-corrected z-score: -0.1417

Sequence: UUCCGCACCAUCUUUAGGG
gene: DYRK2
seed-corrected z-score: -0.007123

Sequence: UACAAUGGUAUAUAGUGGG
gene: JKAMP
seed-corrected z-score: 0.4012

Sequence: UUCAUGUGCAUGAAUCCCU
gene: SHF
seed-corrected z-score: 1.195

Sequence: UUGUGGGUUACGGUCAUUG
gene: TMEM123
seed-corrected z-score: -0.408

Sequence: UCCUUCACAAAACAUGAUC
gene: ZYG11A
seed-corrected z-score: -0.2562

Sequence: UUUGGAUAGUGAUCGACGG
gene: RECK
seed-corrected z-score: -0.1667

Sequence: UCCUUGCACACUGUACUGG
gene: AOC2
seed-corrected z-score: -0.3932

Sequence: UCUAUGUCCACUUCUUGCU
gene: MXD4
seed-corrected z-score: 0.8292

Sequence: AGUUCAACCAGUCUAGGGC
gene: FBXL3
seed-corrected z-score: -0.06841

Sequence: UCUGGUGUCGCCAUUUGGC
gene: GSC2
seed-corrected z-score: 0.2227

Sequence: UCAGAGACUGGACUUGUGC
gene: KRT39
seed-corrected z-score: 0.2309

Sequence: UAAUAGUUGACGAUCUUGC
gene: IPPK
seed-corrected z-score: 1.22

Sequence: AUAGGAAUAAUUGAACUGU
gene: C7orf71
seed-corrected z-score: 1.422

Sequence: UUCUAUCAUUGGUAAGUCC
gene: IFT80
seed-corrected z-score: -0.3273

Sequence: UGGUCUCCAAGAGGCAUCG
gene: LY6G5C
seed-corrected z-score: -0.3776

Sequence: ACAGGUAUUGACAACUUUC
gene: SRA1
seed-corrected z-score: 0.2924

Sequence: UUGCUACCCAUCGAUAGGC
gene: NDUFA9
seed-corrected z-score: 0.06062

Sequence: AAAGAACUUAAAUAUGCUG
gene: AMACR
seed-corrected z-score: 0.07883

Sequence: UUAAUGUCGACUCCUUGAU
gene: HOXB2
seed-corrected z-score: -0.7625

Sequence: UUAGGUUGCUCUGUGAUAA
gene: NUBPL
seed-corrected z-score: 0.02735

Some entries from above, unchanged:

Sequence	gene	seed-corrected z-score
UGACUAAGCUGAUCAACCC	PPP1R13B	-0.5155
UUCUAUCAUUGGUAAGUCC	IFT80	-0.3273
UAUACAUCAACGAAUUGCC	UCHL3	-0.1417

The results are deposited in PubChem (AID1159506; NCATS, 2015).